Data taken from patent US20220213186A1.
Numbering of substitutions follows the chain as printed. No constants are given. Whether binding was seen depends on the method and setting. Some entries that bind do so weakly or less than the wild type. Values belong to the binder of their own block, whether it stands above or below them.

Target: T1, Lrig-1 protein (leucine-rich and immunoglobulin-like domains 1) expressed on the surface of L cells (human) (UniProt Q96JA1)
T1 sequence: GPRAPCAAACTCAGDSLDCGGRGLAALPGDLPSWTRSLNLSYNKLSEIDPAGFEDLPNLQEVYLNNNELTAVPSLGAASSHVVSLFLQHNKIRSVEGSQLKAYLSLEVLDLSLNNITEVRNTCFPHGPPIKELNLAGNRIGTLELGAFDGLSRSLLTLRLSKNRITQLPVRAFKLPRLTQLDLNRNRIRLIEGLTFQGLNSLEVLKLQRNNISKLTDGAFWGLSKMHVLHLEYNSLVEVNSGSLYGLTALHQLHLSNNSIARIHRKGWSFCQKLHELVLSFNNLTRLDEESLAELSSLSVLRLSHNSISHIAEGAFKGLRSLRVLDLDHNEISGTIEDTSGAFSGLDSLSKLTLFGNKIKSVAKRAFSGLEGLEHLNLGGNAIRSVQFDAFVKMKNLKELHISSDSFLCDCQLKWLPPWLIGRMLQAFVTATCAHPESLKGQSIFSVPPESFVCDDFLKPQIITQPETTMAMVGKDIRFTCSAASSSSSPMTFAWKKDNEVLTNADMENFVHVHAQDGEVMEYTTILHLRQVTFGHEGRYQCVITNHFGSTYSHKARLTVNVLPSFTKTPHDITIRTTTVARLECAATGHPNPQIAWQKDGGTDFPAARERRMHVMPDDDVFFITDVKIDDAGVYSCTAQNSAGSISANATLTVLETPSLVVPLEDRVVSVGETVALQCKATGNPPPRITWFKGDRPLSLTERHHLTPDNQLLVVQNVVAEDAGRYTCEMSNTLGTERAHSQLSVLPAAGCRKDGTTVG
Assay: FACS on L cells stably expressing Lrig-1, eFluor 670 anti-mouse secondary antibody

binding: binds
B1: GTC110-04 clone (Production Example 8), Lrig-1 protein-specific monoclonal antibody (antibody, mouse IgG2a, V domains shown)
VH: EVQLLESGGGLVQPGGSLRLSCAASGFTFSNYAMSWVRQAPGKGLEWVSVISHGGGSTYYADSVKGRFTISRDNSKNTLYLQMNSLRAEDTAVYYCARVISNCHLGVCYYSNGMDVWGQGTLVTVSS
VL: QSVLTQPPSASGTPGQRVTISCSGSSSNIGNNDVYWYQQLPGTAPKLLIYSDSQRPSGVPDRFSGSKSGTSASLAISGLRSEDEADYYCGTWDYSLSGYVFGGGTKLTVLR

binding: binds
B2: GTC210-01 clone (Production Example 1), Lrig-1 protein-specific monoclonal antibody (antibody, mouse IgG2a, V domains shown)
VH: EVQLLESGGGLVQPGGSLRLSCAASGFTFSGYDMSWVRQAPGKGLEWVSLIYPDSGNKYYADSVKGRFTISRDNSKNTLYLQMNSLRAEDTAVYYCARDAGLSWAGAFDYWGQGTLVTVSS
VL: B1 VL with N31S, D33Y, Y35T, Q54H, R80Q, T91S, G98A
